According to paper PMC12775674:
No constants are given. Whether binding was seen depends on the method and setting. In cells and extracts the contact can be indirect. Some binding calls cover weakened binding; strength is not graded here. Tags and fused reporters may be left off the sequences shown.

Protein sequences, listed by entry. Tags and fused reporters are not part of them. Residues count along the entry.
UniProt P02545, residues 1-646: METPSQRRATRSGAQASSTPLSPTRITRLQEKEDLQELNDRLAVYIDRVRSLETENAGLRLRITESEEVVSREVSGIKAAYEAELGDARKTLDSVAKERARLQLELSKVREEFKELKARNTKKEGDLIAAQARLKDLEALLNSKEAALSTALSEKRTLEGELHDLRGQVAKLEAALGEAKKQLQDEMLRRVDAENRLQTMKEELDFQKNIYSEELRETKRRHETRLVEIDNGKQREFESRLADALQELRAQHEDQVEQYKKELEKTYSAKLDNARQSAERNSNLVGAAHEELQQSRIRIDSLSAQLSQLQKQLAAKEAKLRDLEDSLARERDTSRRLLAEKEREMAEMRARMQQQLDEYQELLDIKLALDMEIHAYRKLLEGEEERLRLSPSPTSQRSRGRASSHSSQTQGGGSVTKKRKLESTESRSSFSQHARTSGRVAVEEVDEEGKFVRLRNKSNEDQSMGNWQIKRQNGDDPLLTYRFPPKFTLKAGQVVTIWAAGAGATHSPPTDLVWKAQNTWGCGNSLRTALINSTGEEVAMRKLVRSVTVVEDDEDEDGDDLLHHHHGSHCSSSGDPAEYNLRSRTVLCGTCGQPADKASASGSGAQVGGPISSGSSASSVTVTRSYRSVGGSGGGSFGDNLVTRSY

Target: T1, FLAG-tagged full-length METTL14 (UniProt Q9HCE5)
T1 sequence: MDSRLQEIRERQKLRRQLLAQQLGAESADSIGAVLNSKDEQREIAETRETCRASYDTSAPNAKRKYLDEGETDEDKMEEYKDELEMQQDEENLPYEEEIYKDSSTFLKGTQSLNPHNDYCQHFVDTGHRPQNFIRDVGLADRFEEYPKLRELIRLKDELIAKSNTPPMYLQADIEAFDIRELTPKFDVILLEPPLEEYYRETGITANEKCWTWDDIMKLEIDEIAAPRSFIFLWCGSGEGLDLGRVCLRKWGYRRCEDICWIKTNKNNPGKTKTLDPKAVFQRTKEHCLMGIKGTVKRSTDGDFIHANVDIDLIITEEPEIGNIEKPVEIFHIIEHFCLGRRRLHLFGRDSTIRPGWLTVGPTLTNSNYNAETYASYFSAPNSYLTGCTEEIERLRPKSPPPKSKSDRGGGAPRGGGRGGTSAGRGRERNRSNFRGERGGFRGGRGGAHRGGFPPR
Assay: co-IP; anti-FLAG immunoprecipitates from HUVECs expressing FLAG-tagged full-length or truncated METTL14; Western blot for endogenous LMNA

binding: binds
Substance: lamin A/C (LMNA) (from UniProt P02545 1-646)
